According to doi:10.1101/2024.09.30.615857:
No constants are given. Whether binding was seen depends on the method and setting. Some binding calls cover weakened binding; strength is not graded here.

T1: cognate myosin heavy chain fragment (comprising residues 709-840) (UniProt P05661)
T1 sequence: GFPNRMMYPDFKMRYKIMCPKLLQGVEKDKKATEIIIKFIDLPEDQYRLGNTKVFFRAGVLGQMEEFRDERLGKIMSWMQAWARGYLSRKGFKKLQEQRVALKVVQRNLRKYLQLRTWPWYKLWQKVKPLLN

B1: Mlc1 (myosin light chain) (protein, UniProt P06742 1-155)
chain: MADVPKREVENVEFVFEVMGSPGEGIDAVDLGDALRALNLNPTLALIEKLGGTKKRNEKKIKLDEFLPIYSQVKKEKEQGCYEDFIECLKLYDKEENGTMLLAELQHALLALGESLDDEQVETLFADCMDPEDDEGFIPYSQFVQRLMSDPVVFD
B2: Mlc2 (myosin light chain) (protein, UniProt P18432 1-222)
chain: MADEKKKVKKKKTKEEGGTSETASEAASEAATPAPAATPAPAASATGSKRASGGSRGSRKSKRAGSSVFSVFSQKQIAEFKEAFQLMDADKDGIIGKNDLRAAFDSVGKIANDKELDAMLGEASGPINFTQLLTLFANRMATSGANDEDEVVIAAFKTFDNDGLIDGDKFREMLMNFGDKFTMKEVDDAYDQMVIDDKNQIDTAALIEMLTGKGEEEEEEAA

Molecular target: T1, cognate myosin heavy chain fragment (comprising residues 709-840)
Assay: co-expression and co-purification

Row | Binder | binding
1 | B1 | binds
2 | B2 | binds
